Reference: PMC5112536
These are yes or no findings as the source states them, for the method shown. In cells and extracts the contact can be indirect. For part of these data: A result given as binding can be weak or reduced; the word gives no strength. Sequences can lack the tags named with a protein. Values belong to the molecule of their own block, whether it stands above or below them.

Sequences of proteins named here, by UniProt entry; tags and fusion partners are left off. A change or cut given only in a name is not applied to a line headed by its entry.
UniProt Q96BA8: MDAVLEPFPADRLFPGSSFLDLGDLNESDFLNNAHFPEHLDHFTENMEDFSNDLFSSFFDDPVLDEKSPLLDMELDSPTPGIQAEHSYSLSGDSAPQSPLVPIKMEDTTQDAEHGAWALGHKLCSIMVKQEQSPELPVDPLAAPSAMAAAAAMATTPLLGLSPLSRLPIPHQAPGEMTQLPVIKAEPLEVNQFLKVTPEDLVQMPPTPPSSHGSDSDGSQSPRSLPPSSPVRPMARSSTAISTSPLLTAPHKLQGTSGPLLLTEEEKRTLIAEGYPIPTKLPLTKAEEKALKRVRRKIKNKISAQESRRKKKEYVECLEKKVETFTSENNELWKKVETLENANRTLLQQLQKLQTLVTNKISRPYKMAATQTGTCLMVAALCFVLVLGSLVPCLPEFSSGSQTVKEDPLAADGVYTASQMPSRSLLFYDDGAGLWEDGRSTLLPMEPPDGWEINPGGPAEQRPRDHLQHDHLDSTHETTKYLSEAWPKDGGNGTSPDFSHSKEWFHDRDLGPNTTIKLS

Tests used:
Test in all cases: co-IP; HEK293T cells co-transfected with the expression vectors; lysates incubated with anti-FLAG or anti-Myc antibodies overnight, protein G-agarose at 4 °C for 3 hours, washed with TNE buffer (10 mM Tris, 1 mM EDTA, 150 mM NaCl); western blot with anti-FLAG or anti-Myc
[1] = target: T1, Myc-tagged full-length AIbZIP (human) (UniProt Q8TEY5)
T1 sequence: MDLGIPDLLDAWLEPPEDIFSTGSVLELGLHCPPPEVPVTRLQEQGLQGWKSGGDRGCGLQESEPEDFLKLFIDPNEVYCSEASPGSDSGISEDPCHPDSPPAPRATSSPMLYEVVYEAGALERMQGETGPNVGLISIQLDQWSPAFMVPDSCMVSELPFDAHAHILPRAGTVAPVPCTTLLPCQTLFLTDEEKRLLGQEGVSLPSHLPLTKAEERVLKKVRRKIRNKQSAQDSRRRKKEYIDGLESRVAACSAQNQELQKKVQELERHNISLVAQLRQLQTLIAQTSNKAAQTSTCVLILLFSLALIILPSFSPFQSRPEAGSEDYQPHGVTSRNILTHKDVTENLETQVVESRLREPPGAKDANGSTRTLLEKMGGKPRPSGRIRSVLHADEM

FLAG-OASIS ΔbZIP (human) = FLAG-OASIS ΔbZIP (human) (UniProt Q96BA8)
N-terminal OASIS (human) = target: N-terminal OASIS (human)

binding [1]: binds
Molecule: N-terminal OASIS (human) (domain or fragment)

binding (FLAG-OASIS ΔbZIP (human)): no binding | binding (N-terminal OASIS (human)): binds
B1: Myc-tagged full-length AIbZIP (protein, UniProt Q8TEY5 1-395)
chain: T1 sequence
